PubChem BioAssay AID1224826 – NIAID, 2016

Purpose: 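Regulators of Tlr4 signalling leading to Tnf-alpha expression in macrophages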 (primary screen)
Cell system: RAW264.7 G9 macrophages from mouse bearing reporters for p65 (GFP) and the Tnf promoter (mCherry)
Reagents: siRNA pool against mouse genes, 100 nM
Time to read-out: 16 h of LPS stimulation, after 2 days of siRNA transfection
Treatment: bacterial lipopolysaccharide (Salmonella minnesota R595), 10 ng/ml
Measured: 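Imaged Tnf reporter mCherry in nuclei, minus background, normalised per plate to the median and expressed as robust z-scores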
Scale: Tnf reporter robust z-score: higher = stronger Tnf promoter reporter signal after LPS
Active means: 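a well counts as active at a score of -1.3 or below (Tlr4 knock-down control median) or above 3 (raised signal); controls and wells holding fewer than 50 cells are excluded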
Meaning of the calls: active = Tnf reporter clearly lowered or raised; inactive = no clear change in Tnf reporter
Shown is one part, drawn at random, of about 17,000 reagents tested. About 1,110 of all reagents (6.6%) were called active. 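Active means lowered or raised reporter signal; replicate intensities are raw and not normalised per plate.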 The numbers tell different reagents against one gene apart. Not all columns of the deposit are shown.

The first 7 entries as a preview:
Gene | reagent | Tnf reporter robust z-score | fewer than 50 cells in well | Outcome
Pnpla6 (GeneID 50767) | 1 | 0.25 | enough cells in well | inactive
Rnase9 (GeneID 328401) | 1 | -0.65 | enough cells in well | inactive
A630091E08Rik (GeneID 233544) | 1 | 0.7 | enough cells in well | inactive
Slc6a20a (GeneID 102680) | 1 | 3.11 | enough cells in well | active
Pigyl (GeneID 66268) | 1 | 0.59 | enough cells in well | inactive
Evc2 (GeneID 68525) | 1 | -0.3 | enough cells in well | inactive
Plppr3 (GeneID 216152) | 1 | 2.15 | enough cells in well | inactive

Main list, repeating the preview:
Gene | reagent | Tnf reporter robust z-score | fewer than 50 cells in well | Outcome
Pnpla6 (GeneID 50767) | 1 | 0.25 | enough cells in well | inactive
Rnase9 (GeneID 328401) | 1 | -0.65 | enough cells in well | inactive
A630091E08Rik (GeneID 233544) | 1 | 0.7 | enough cells in well | inactive
Slc6a20a (GeneID 102680) | 1 | 3.11 | enough cells in well | active
Pigyl (GeneID 66268) | 1 | 0.59 | enough cells in well | inactive
Evc2 (GeneID 68525) | 1 | -0.3 | enough cells in well | inactive
Plppr3 (GeneID 216152) | 1 | 2.15 | enough cells in well | inactive
Tab3 (GeneID 66724) | 1 | – | fewer than 50 cells per well; well left out of calls | inactive
Or6s1 (GeneID 404319) | 1 | 0.05 | enough cells in well | inactive
Arnt2 (GeneID 11864) | 1 | -1.03 | enough cells in well | inactive
Rpa3 (GeneID 68240) | 1 | 0.08 | enough cells in well | inactive
Setd1a (GeneID 233904) | 1 | 1.68 | enough cells in well | inactive
Setd1a (GeneID 233904) | 2 | -0.26 | enough cells in well | inactive
Pgbd5 (GeneID 209966) | 1 | 0.02 | enough cells in well | inactive
Mst1 (GeneID 15235) | 1 | 0.6 | enough cells in well | inactive
Gtf3c2 (GeneID 71752) | 1 | -0.48 | enough cells in well | inactive
Zmynd19 (GeneID 67187) | 1 | 0.65 | enough cells in well | inactive
Btg1 (GeneID 12226) | 1 | 2.17 | enough cells in well | inactive
C130026L21Rik (GeneID 330164) | 1 | -0.52 | enough cells in well | inactive
Gcgr (GeneID 14527) | 1 | 0.97 | enough cells in well | inactive
Samd13 (GeneID 75015) | 1 | – | fewer than 50 cells per well; well left out of calls | inactive
Defa1 (GeneID 13216) | 1 | -1.3 | enough cells in well | active
Csrnp2 (GeneID 207785) | 1 | -1.34 | enough cells in well | active
Garin5b (GeneID 243822) | 1 | – | fewer than 50 cells per well; well left out of calls | inactive
Stk4 (GeneID 58231) | 1 | – | fewer than 50 cells per well; well left out of calls | inactive
Defb21 (GeneID 403172) | 1 | – | fewer than 50 cells per well; well left out of calls | inactive
Cd200r1l (GeneID 319823) | 1 | 1.31 | enough cells in well | inactive
Ackr1 (GeneID 13349) | 1 | 1.03 | enough cells in well | inactive
Mapre3 (GeneID 100732) | 1 | -0.63 | enough cells in well | inactive
Slc19a1 (GeneID 20509) | 1 | 0.9 | enough cells in well | inactive
Or4f61 (GeneID 258442) | 1 | 0.94 | enough cells in well | inactive
Tcf3 (GeneID 21423) | 1 | 1.17 | enough cells in well | inactive
Ctdnep1 (GeneID 67181) | 1 | – | fewer than 50 cells per well; well left out of calls | inactive
Lhcgr (GeneID 16867) | 1 | 0.27 | enough cells in well | inactive
Ccl7 (GeneID 20306) | 1 | 1.1 | enough cells in well | inactive
Slc28a2 (GeneID 269346) | 1 | -0.82 | enough cells in well | inactive
Cacng5 (GeneID 140723) | 1 | -0.59 | enough cells in well | inactive
B4galt5 (GeneID 56336) | 1 | -1.24 | enough cells in well | inactive
Pgls (GeneID 66171) | 1 | -1.36 | enough cells in well | active
Acsbg1 (GeneID 94180) | 1 | -0.96 | enough cells in well | inactive
P4htm (GeneID 74443) | 1 | -0.67 | enough cells in well | inactive
Foxo3 (GeneID 56484) | 1 | 1.12 | enough cells in well | inactive
Strn3 (GeneID 94186) | 1 | 3.58 | enough cells in well | active
Tesk1 (GeneID 21754) | 1 | 1.78 | enough cells in well | inactive
Cilp (GeneID 214425) | 1 | -1.1 | enough cells in well | inactive
Supt3 (GeneID 109115) | 1 | 0.49 | enough cells in well | inactive
Retreg3 (GeneID 67998) | 1 | 0.64 | enough cells in well | inactive
Ptf1a (GeneID 19213) | 1 | -1.78 | enough cells in well | active
Fbf1 (GeneID 217335) | 1 | -0.76 | enough cells in well | inactive
Atf6 (GeneID 226641) | 1 | 0.78 | enough cells in well | inactive
Hesx1 (GeneID 15209) | 1 | -0.43 | enough cells in well | inactive
Btf3 (GeneID 218490) | 1 | -0.46 | enough cells in well | inactive
Zfp462 (GeneID 242466) | 1 | 0.06 | enough cells in well | inactive
1700006J14Rik (GeneID 321010) | 1 | -0.42 | enough cells in well | inactive
Tlx2 (GeneID 21909) | 1 | -1.17 | enough cells in well | inactive
Serpinb11 (GeneID 66957) | 1 | – | fewer than 50 cells per well; well left out of calls | inactive
Spout1 (GeneID 227695) | 1 | 0.78 | enough cells in well | inactive
A930018M24Rik (GeneID 328399) | 1 | -0.24 | enough cells in well | inactive
Ptn (GeneID 19242) | 1 | -0.58 | enough cells in well | inactive
Ppm1g (GeneID 14208) | 1 | 0.56 | enough cells in well | inactive
Vmn1r84 (GeneID 171267) | 1 | -0.1 | enough cells in well | inactive
Dsc1 (GeneID 13505) | 1 | -0.52 | enough cells in well | inactive
Mos (GeneID 17451) | 1 | – | fewer than 50 cells per well; well left out of calls | inactive
Itfg1 (GeneID 71927) | 1 | 2.46 | enough cells in well | inactive
Syt13 (GeneID 80976) | 1 | 2.79 | enough cells in well | inactive
Adamtsl3 (GeneID 269959) | 1 | 0.44 | enough cells in well | inactive
Zc3h13 (GeneID 67302) | 1 | -0.41 | enough cells in well | inactive
Zfp189 (GeneID 230162) | 1 | 0.5 | enough cells in well | inactive
Atp1b3 (GeneID 11933) | 1 | -1.49 | enough cells in well | active
Cox6a1 (GeneID 12861) | 1 | 0.11 | enough cells in well | inactive
Pdcd11 (GeneID 18572) | 1 | – | fewer than 50 cells per well; well left out of calls | inactive
Ces1g (GeneID 12623) | 1 | 0.37 | enough cells in well | inactive
Vmn1r17 (GeneID 171189) | 1 | 2.44 | enough cells in well | inactive
Map3k5 (GeneID 26408) | 1 | -0.25 | enough cells in well | inactive
Adarb1 (GeneID 110532) | 1 | -0.7 | enough cells in well | inactive
